Laboratory results reported in the supplement of paper PMC10338343.
± gives the standard deviation. The list shows a part of the results, in another mix than the full data. Many of these values have a large error.

Tested on: MILI (PIWIL2) piRISC loaded with piRNA #1 (26 nt)
Assay: pre-steady-state target cleavage rate (min^-1); MIWI and MILI are mouse PIWI proteins and EfPiwi is from a freshwater sponge; tags in brackets are library labels; higher = faster piRNA-guided slicing of the target
Settings: guide: piRNA #1 5'p-UGAGGUAGUAGGUUGUAUAGUAUCCA; auxiliary factor: 500 nM mouse GTSF1
Procedure, shortened: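 Active affinity-purified piRISC (1 nM) loaded with one synthetic guide was mixed with a transcribed, DNA-blocked target RNA library (0.1 nM), with or without 500 nM GTSF1 partner protein, in HEPES–potassium acetate buffer at 33 °C for 0–8 or 0–960 min. Uncleaved targets were sequenced, normalised to depth and to weakly complementary targets, and pooled across three trials, with k3 capped at 0.0001 min^-1. The pre-steady-state cleavage rate was determined with a burst-and-steady-state fit.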

Sequence	pre-steady-state target cleavage rate
GGAGACCUAUGAAUAGAACCUACUACGUCA	0.000135 ± 0.025
GGAGACCUAUGAUAACAACCUACUAGGACA	0.000183 ± 0.021
GGAGAGGAUACCAUACAACCUACUACCUCA	0.167 ± 0.021
GGAGUCGAUACAAUACAACCUACUACCUCA	0.177 ± 0.012
GGAGACCAUACUAUACAACGCUACUACCUCA	0.00143 ± 0.0067
GGAGACCUAUGAUAUCAACCUACUACCAGA [g4:g15:cont:t1A]	0.000755 ± 0.0072
GGAGACGAUACUAUACAAACUACUACCUCA	0.245 ± 0.015
GGAGACGAUACUAUACAACCUACUGACCUCA	0.118 ± 0.015
GGAGACCUAUGAAUACAACCUACUUGGUCA	0.000119 ± 0.019
GGAGACCUAUGAUAUCAAGCUACUUCCUCA	0.00275 ± 0.0035
GGAGAGGAUACUAUACAACUUACUACCUCA	0.0186 ± 0.0027
GGAGUGGAAACAAUACAACCUACUACCUCA	0.184 ± 0.018
GGAGUGGAUACAAUACAACCUACAACCUCA	0.0772 ± 0.01
GGAGACCUAUGAUAUGAACCUACUACCUCC [g2:g14:cont:t1C]	0.000368 ± 0.0082
GGAGACCUAUGAUAUGAACCUACUACACUCA	< 0.0001
GGAGACCUAUCUAUACAACCUACUACCUCC [g2:g20:cont:t1C]	0.106 ± 0.011
GGAGACCUAUGAUAUGAAGCUACUAGCUCA	0.000259 ± 0.02
GGAGACCUAUGAUAUGUUCCAACAACCUCA	0.000413 ± 0.01
GGAGACCUAUGAUAUGUACCUACUACCUCA	0.000125 ± 0.019
GGAGUCGAUACUAUACAUCCUACUACCUCA	0.313 ± 0.017

Shown bar-delimited: entries from further up
Sequence | pre-steady-state target cleavage rate
GGAGACCUAUGAUAACAACCUACUAGGACA | 0.000183 ± 0.021
GGAGACCUAUGAUAUGAACCUACUACACUCA | < 0.0001
GGAGACCUAUGAUAUGAAGCUACUAGCUCA | 0.000259 ± 0.02

(cont.)

Sequence	pre-steady-state target cleavage rate
GGAGACCUAUGAUAUGAACCAACUACCACA	0.000142 ± 0.023
GGAGACCUAUGAUAUGAACGUACAACCUCA	< 0.0001
GGAGACGAGACUAUACAACCUACUACCUCA	0.214 ± 0.034
GGAGACCUAUGAUAUGUACCUACUACCUCG [g2:g13:cont:t1G]	0.000301 ± 0.0095
GGAGACCUAUGAUAUGUUGCAAGUACCUCA	0.000166 ± 0.033
GGAGUGGAUACUAUACAACCUUGUACCUCA	0.0009 ± 0.005
GGAGACGAUACUAUACAACGUACUACCACA	0.0317 ± 0.0055
GGAGACCUAUGAUUACAACCUACUCCUCA	< 0.0001
GGAGACCUAUGAAUAGAACCUACUACCACA	0.00136 ± 0.0033
GGAGACCAUACUAUACAACCUACUACCUA	0.125 ± 0.016
GGAGUGAGAUACUAUACAACCUACUACCUCA	0.189 ± 0.012
GGAGACCAUACUAUACAACACUACUACCUCA	0.00135 ± 0.0062
GGAGACCAUACUAUACAACCUACUUGCUCA	0.13 ± 0.032
GGAGACGAUACUAUACAACCAACAACCUCA	0.00726 ± 0.0036
GGAGAGGAAACUAUACAACCUACUAGCUCA	0.0535 ± 0.019
GGAGACCUAUGAUAUGUUCCUAGUACGUCA	0.000197 ± 0.017
GGAGACCUAUGAUAUCUACCUACUAGCUCA	0.000605 ± 0.0058
GGAGUGGAUGCUAUACAACCUACUACCUCA	0.152 ± 0.022
GGAGACCUAUGAUAACAACCUUGAACCUCA	0.000117 ± 0.024
GGAGACGAUAGUAUAGAACCUACUACCUCA	0.158 ± 0.013
